Data from paper PMC11749472.
Results are given in words; binding and its absence hold for the method and conditions named. Binding seen in cells or lysates may run through a third protein. Here binding means that the protein was enriched with, or labelled near, the bait; the list need not be complete. For part of these data: A no says only that the protein was not detected with the bait. For part of these data: Where a sequence is shown, tags or fusion partners need not be part of it. Blank lines part the entries; values can stand above or below the molecule they belong to.

By UniProt entry, the sequences of proteins in these tests, tags left out. Residues count along the entry.
UniProt Q9BXM7, residues 78-581: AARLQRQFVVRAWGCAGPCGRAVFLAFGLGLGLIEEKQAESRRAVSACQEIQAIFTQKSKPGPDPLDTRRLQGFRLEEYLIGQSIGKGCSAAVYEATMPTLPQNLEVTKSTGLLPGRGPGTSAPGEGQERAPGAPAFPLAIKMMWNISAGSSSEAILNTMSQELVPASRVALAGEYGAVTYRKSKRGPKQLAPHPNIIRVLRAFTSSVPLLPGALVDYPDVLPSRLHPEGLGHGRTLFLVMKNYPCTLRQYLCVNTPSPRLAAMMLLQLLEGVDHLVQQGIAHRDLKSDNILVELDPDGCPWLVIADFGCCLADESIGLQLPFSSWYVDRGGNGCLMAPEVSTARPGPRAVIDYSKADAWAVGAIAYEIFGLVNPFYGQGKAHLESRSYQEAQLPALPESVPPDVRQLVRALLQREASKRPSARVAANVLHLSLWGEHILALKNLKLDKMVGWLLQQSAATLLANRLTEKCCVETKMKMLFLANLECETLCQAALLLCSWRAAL
UniProt Q9UKV5: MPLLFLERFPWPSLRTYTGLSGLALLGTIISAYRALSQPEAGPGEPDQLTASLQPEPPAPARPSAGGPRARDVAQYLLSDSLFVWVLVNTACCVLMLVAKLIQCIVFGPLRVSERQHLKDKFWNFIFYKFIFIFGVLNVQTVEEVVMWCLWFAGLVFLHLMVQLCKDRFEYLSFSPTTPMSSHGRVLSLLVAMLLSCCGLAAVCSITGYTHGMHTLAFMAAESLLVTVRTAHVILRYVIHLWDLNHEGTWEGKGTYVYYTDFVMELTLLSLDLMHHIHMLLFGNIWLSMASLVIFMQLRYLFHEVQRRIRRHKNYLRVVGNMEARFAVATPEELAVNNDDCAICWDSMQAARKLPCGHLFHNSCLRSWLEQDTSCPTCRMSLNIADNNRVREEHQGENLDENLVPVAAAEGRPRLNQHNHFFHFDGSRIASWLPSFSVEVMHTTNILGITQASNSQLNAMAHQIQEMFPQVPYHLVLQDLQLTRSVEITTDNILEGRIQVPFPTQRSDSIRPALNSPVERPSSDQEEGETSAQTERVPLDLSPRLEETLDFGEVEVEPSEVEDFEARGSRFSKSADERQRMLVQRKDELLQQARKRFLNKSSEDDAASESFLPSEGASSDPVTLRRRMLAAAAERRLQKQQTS
UniProt O43765: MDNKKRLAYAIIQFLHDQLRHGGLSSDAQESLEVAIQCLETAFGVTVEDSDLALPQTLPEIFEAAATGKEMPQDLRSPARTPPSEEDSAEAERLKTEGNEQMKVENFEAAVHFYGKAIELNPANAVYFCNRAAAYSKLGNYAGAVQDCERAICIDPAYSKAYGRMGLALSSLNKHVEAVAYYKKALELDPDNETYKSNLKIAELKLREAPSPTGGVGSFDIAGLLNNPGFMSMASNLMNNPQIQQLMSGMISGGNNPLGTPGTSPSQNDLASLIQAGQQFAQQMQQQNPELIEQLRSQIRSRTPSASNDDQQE

Tests used:
[1] = target: T1, SARM1-V5-APEX2 (full-length sterile alpha and Toll/interleukin 1 receptor motif-containing protein 1 fused to V5-APEX2) (human) (UniProt Q6SZW1); test: proximity labelling; SARM1-V5-APEX2 in cells; biotinylation of PINK1 examined, compared with the vector or N27-V5-APEX2 control (Fig. S3)
T1 sequence: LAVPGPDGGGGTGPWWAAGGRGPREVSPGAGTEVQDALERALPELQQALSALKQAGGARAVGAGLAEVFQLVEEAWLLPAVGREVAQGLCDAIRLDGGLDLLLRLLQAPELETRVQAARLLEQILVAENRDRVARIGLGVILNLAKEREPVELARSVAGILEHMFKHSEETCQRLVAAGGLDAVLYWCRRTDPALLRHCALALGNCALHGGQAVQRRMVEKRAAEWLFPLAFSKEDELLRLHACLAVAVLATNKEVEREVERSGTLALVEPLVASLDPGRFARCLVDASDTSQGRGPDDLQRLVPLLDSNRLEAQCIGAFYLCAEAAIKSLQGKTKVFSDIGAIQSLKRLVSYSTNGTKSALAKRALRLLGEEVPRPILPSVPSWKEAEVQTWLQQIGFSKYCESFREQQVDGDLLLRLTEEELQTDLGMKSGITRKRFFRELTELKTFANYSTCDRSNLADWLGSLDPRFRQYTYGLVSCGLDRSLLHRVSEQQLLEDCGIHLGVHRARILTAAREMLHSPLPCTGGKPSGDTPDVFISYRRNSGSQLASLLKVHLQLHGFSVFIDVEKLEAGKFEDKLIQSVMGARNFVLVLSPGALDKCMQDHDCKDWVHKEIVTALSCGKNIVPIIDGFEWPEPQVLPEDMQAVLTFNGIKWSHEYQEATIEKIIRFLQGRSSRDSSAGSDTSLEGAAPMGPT

[2] = target: T1, SARM1-V5-APEX2 (full-length sterile alpha and Toll/interleukin 1 receptor motif-containing protein 1 fused to V5-APEX2) (human); test: proximity labelling; APEX2 fusions expressed in HEK293T cells; biotin-phenol 30 min, 1 mM H2O2 1 min; lysis in RIPA buffer, streptavidin magnetic beads, LC-MS/MS; normalised to N27-V5-APEX2 (fold change > 1.2, P < 0.05)
[3] = target: T2, SARM1-V5-APEX2 (full-length sterile alpha and Toll/interleukin 1 receptor motif-containing protein 1 fused to V5-APEX2) (human), Q6SZW1; test: as above; conditions: remark: other sources report otherwise
T2 chain: T1 sequence

[4] = target: ARM-V5-APEX2 (N-terminal armadillo repeat motif domain of SARM1 fused to V5-APEX2) (human); test: as above

binding [1]: binds
Molecule: PINK1 (from UniProt Q9BXM7 78-581)

binding [2]: binds
Molecule: glycoprotein 78 (GP78), endogenous in HEK293T (from UniProt Q9UKV5 1-643) (enzyme)

binding [2]: no binding
Molecule: small glutamine-rich tetratricopeptide repeat-containing protein alpha (SGTA), endogenous in HEK293T (from UniProt O43765 1-313)

binding [2]: no binding
Molecule: valosin-containing protein (VCP), endogenous in HEK293T (from UniProt P55072 1-806)

binding [3]: binds
B1: ubiquitin-specific peptidase 13 (USP13), endogenous in HEK293T, Q92995 1-863 (enzyme)
chain: MQRRGALFGMPGGSGGRKMAAGDIGELLVPHMPTIRVPRSGDRVYKNECAFSYDSPNSEGGLYVCMNTFLAFGREHVERHFRKTGQSVYMHLKRHVREKVRGASGGALPKRRNSKIFLDLDTDDDLNSDDYEYEDEAKLVIFPDHYEIALPNIEELPALVTIACDAVLSSKSPYRKQDPDTWENELPVSKYANNLTQLDNGVRIPPSGWKCARCDLRENLWLNLTDGSVLCGKWFFDSSGGNGHALEHYRDMGYPLAVKLGTITPDGADVYSFQEEEPVLDPHLAKHLAHFGIDMLHMHGTENGLQDNDIKLRVSEWEVIQESGTKLKPMYGPGYTGLKNLGNSCYLSSVMQAIFSIPEFQRAYVGNLPRIFDYSPLDPTQDFNTQMTKLGHGLLSGQYSKPPVKSELIEQVMKEEHKPQQNGISPRMFKAFVSKSHPEFSSNRQQDAQEFFLHLVNLVERNRIGSENPSDVFRFLVEERIQCCQTRKVRYTERVDYLMQLPVAMEAATNKDELIAYELTRREAEANRRPLPELVRAKIPFSACLQAFSEPENVDDFWSSALQAKSAGVKTSRFASFPEYLVVQIKKFTFGLDWVPKKFDVSIDMPDLLDINHLRARGLQPGEEELPDISPPIVIPDDSKDRLMNQLIDPSDIDESSVMQLAEMGFPLEACRKAVYFTGNMGAEVAFNWIIVHMEEPDFAEPLTMPGYGGAASAGASVFGASGLDNQPPEEIVAIITSMGFQRNQAIQALRATNNNLERALDWIFSHPEFEEDSDFVIEMENNANANIISEAKPEGPRVKDGSGTYELFAFISHMGTSTMSGHYICHIKKEGRWVIYNDHKVCASERPPKDLGYMYFYRRIPS

binding [4]: binds
B2: ubiquitin-specific peptidase 13 (USP13), endogenous in HEK293T (enzyme, UniProt Q92995 1-863)
chain: B1 chain
